# PubChem BioAssay AID590 (National Center for Advancing Translational Sciences (NCATS), 2007)
# The campaign covered roughly 59,000 compounds. About 6,500 (11%) were called active. The inconclusive results got no clear call from the source; some entries with a clear call stand among them for comparison. Rule as the data show it: active = max dye-equivalent concentration above about 10 nM; inconclusive = mostly about 1.1 nM to 9.6 nM; inactive = weaker than that. A structure can be active in one record and inactive in another.
# Assay: qHTS Assay for Spectroscopic Profiling in A350 Spectral Region
# Settings: Compound autofluorescence, 340/450 nm, Alexa 350 dye-equivalents; active compounds read high
Structure (SMILES),max dye-equivalent concentration,outcome
CCc1ccc2[nH]c(=O)c(CN(CCN(C)C)C(=O)Nc3ccccc3OC)cc2c1,inactive,
C=CCn1c(COc2cccc3ccc(C)nc23)nnc1SCC(N)=O,inactive,
COc1ccc2cc(S(=O)(=O)N3CCCCC3)ccc2c1S(=O)(=O)N1CCCCC1,inconclusive: 1.8 nM,
O=C(NCCCN1CCOCC1)c1ccc(CS(=O)(=O)Cc2ccc(Cl)cc2)o1,inactive,
Clc1ccc(-n2nnnc2Sc2ncnc3sccc23)cc1,inactive,
COc1cccc(Cn2c(=O)c(-c3ccc(Cl)cc3)nc3cnc(N4CCNCC4)nc32)c1,inconclusive: 8.8 nM,
c1ccc2c(c1)-c1nc3ccccc3cc1[C@H]2N1CCOCC1,inactive,
O=C(NCCc1ccc2c(c1)OCCO2)c1cc2ccccc2o1,inactive,
COC(=O)C1Cc2c([nH]c3ccccc23)CN1 (stereo not drawn),active: 22 nM,
O=c1cnc2cnc(N3CCOCC3)nc2n1C[C@H]1CCCO1,inconclusive: 3.8 nM,
CCC(CC)c1nnc(NS(=O)(=O)Cc2ccccc2)s1,inconclusive: 4.2 nM,
Cc1noc(C)c1COC(=O)CCOc1ccccc1,inconclusive: 5.8 nM,
O=C(OCC(=O)c1ccc(S(=O)(=O)N2CCCC2)cc1)C1=COCCO1,inconclusive: 2.8 nM,
Cc1ccc(CNC(=O)C2C3C=CC4(CN(Cc5cccnc5)C(=O)C24)O3)cc1 (stereo not drawn),inconclusive: 7.7 nM,
CCCCc1nc(N2CCOCC2)c(C#N)c2c1CCCC2,active: 35 nM,
Cn1cc(-c2nc3cnc(N4CCNCC4)nc3n(C)c2=O)c2ccccc21,inconclusive: 2.2 nM,
COc1ccc2cc3cc(C(=O)Nc4ccc5c(c4)OCO5)oc3nc2c1,inconclusive: 3.4 nM,
Cc1cccc2cc(C#N)c(SCC(=O)N3CC(=O)Nc4ccccc43)nc12,inconclusive: 7.5 nM,
CO[C@H]1[C@H](O[C@H]2O[C@@H](C)[C@@H](O[C@@H]3C[C@](C)(O)[C@H](O)[C@H](C)O3)[C@@H](N(C)C)[C@@H]2O)[C@@H](CC=O)C[C@@H](C)[C@@H](O[C@H]2CC[C@H](N(C)C)[C@H](C)O2)/C=C\C=C/C[C@@H](C)OC(=O)C[C@H]1O,inactive,

Structure (SMILES),max dye-equivalent concentration,outcome
CCOc1ccccc1-c1cc(-c2ccc(OC)cc2)nc2c1c(=O)n(C)c(=O)n2C,inconclusive: 2.7 nM,
Cc1cc(NC(=O)c2cccnc2)ccc1NC(=O)c1ccco1,inactive,
O=C(O)CSc1ncn[nH]1,inconclusive: 4.2 nM,
C[N+](C)(C)c1ncnc2c1ncn2[C@@H]1C[C@H](O)[C@@H](CO)O1,inactive,
O=C(NC1CCCC1)c1cnn2c(C(F)(F)F)cc(-c3ccc4c(c3)OCO4)nc12,inconclusive: 2.8 nM,
CCOC(=O)c1ccccc1NC(=O)c1cncc(Br)c1,inconclusive: 1.6 nM,
COCCn1c(C)cc2c(c1=O)C(c1ccccc1F)C(C#N)=C(N)O2 (stereo not drawn),inconclusive: 1.5 nM,
Cc1nc(C)n(CC(O)COc2ccc3ccccc3c2)n1 (stereo not drawn),inconclusive: 7.2 nM,
O=S(=O)(Nc1nc2ccccc2nc1Nc1ccc2c(c1)OCCO2)c1cccs1,inactive,
Oc1ccc2c(c1)oc1cc(O)ccc12,inconclusive: 1.7 nM,
C=CCn1c(SCC(=O)OC)nc2sc3c(c2c1=O)CCN(C)C3,active: 62 nM,
CN1CCN(c2ncc3nc(-c4cccc(C#N)c4)c(=O)n(Cc4ccc(F)cc4)c3n2)CC1,active: 13 nM,
N#CC(c1nc2ccccc2nc1N1CCCCC1)S(=O)(=O)c1ccc(Cl)cc1 (stereo not drawn),active: 15 nM,
O=C(CSc1nc2ccccc2c(=O)n1Cc1ccco1)c1ccccc1,inactive,
O=C(CCC1CCCCC1)Nc1c[nH]c(=O)[nH]c1=O,inconclusive: 2.3 nM,
CC(=O)c1cccc(-n2nnnc2SCC(=O)Nc2cccc(NC(=O)c3ccco3)c2)c1,inactive,
O=C(O)CN1CCOCCOCCN(CC(=O)O)CCOCCOCC1,inactive,
COc1nnc(-c2ccc(N3CCCCC3)c(N)c2)c2ccccc12,inactive,
CCOC(=O)c1nnn(-c2nonc2N)c1CSc1ccccn1,inactive,

Structure (SMILES),max dye-equivalent concentration,outcome
N#CC1(c2c(O)nc3n(c2=O)CCCS3)CCCCC1,inconclusive: 1.1 nM,
Cc1ccc(C(=O)NCc2ccc3c(c2)OCO3)cc1S(=O)(=O)N1CCOCC1,inactive,
CC(C)C(C(=O)NCC1CCCO1)N(Cc1ccco1)C(=O)CNS(=O)(=O)c1ccc(F)cc1 (stereo not drawn),inconclusive: 7.8 nM,
OCc1nn2c(c1Br)NC(c1ccccc1)CC2C(F)(F)F (stereo not drawn),inactive,
c1ccc(-c2noc(-c3cccc4ccccc34)n2)cc1,inconclusive: 6.8 nM,
CC1(c2ccc(Cl)cc2)NC(=O)N(CC(=O)NC(=O)NCc2ccco2)C1=O (stereo not drawn),inactive,
CCOC(=O)C1C(=O)CC(C)(O)C(C(=O)OCC)C1c1ccccc1OC (stereo not drawn),inactive,
CC(C)N1C(=O)c2ccccc2C1C(=O)NC1CCCCCC1 (stereo not drawn),inactive,
NC(=O)CSc1nnc2sc3ccccc3n12,inconclusive: 2.1 nM,
CN(N=O)c1ccc(/C=C\c2ccnc3ccccc23)cc1,active: 280 nM,
O=C(O)CNC(=O)[C@@H](CS)Cc1ccccc1,inconclusive: 5.1 nM,inactive
CCCN1C(=O)c2ccc(C(=O)NC3=NCCS3)cc2C1=O,inconclusive: 4.4 nM,
O=C(COCCOCC(=O)N(c1ccccn1)C1CCCCC1)N(c1ccccn1)C1CCCCC1,inconclusive: 1.2 nM,
C=CCN1C(=O)CC(C(=O)NC)SC1=Nc1ccc(C(=O)OCC)cc1 (stereo not drawn),active: 43 nM,
COC(=O)c1ccc(CN2CCN(Cc3ccc(C(=O)OC)o3)CC2)o1,inconclusive: 1.4 nM,
COc1ccc(C(=O)Nc2cccc(N(C)S(C)(=O)=O)c2)cc1OC,active: 250 nM,
CC[C@@]12CCCN3CCc4c(n(c5ccccc45)[C@](O)(C(=O)OC)C1)[C@H]32,active: 16 nM,
O=C(c1nc2nc(-c3ccc(Cl)cc3)cc(C(F)(F)F)n2n1)N1CCOCC1,active: 38 nM,
c1ccc(-c2oc3ncnc(N4CCOCC4)c3c2-c2ccccc2)cc1,inconclusive: 7.2 nM,

# Among those listed so far, two contain bromine:
Structure (SMILES),max dye-equivalent concentration,outcome
CCOC(=O)c1ccccc1NC(=O)c1cncc(Br)c1,inconclusive: 1.6 nM,
OCc1nn2c(c1Br)NC(c1ccccc1)CC2C(F)(F)F (stereo not drawn),inactive,

# Rewritten with bars between the fields: 2 of the compounds above
Structure (SMILES) | max dye-equivalent concentration | outcome
C[N+](C)(C)c1ncnc2c1ncn2[C@@H]1C[C@H](O)[C@@H](CO)O1 | inactive | 
O=C(NC1CCCC1)c1cnn2c(C(F)(F)F)cc(-c3ccc4c(c3)OCO4)nc12 | inconclusive: 2.8 nM | 
